Common to all, as to assay: FRET or BRET; BRET in intact S2-R+ cells between C-terminally GFP10-tagged truncated Smo variants (300 ng) and Cos2-RLucII (75 ng), myc-Fu (75 ng) co-transfected; cells treated with control (beta-gal), gprk2 or smo 3'UTR dsRNA, without or with myc-Gprk2; net BRET
A general note: Bioluminescence resonance energy transfer reports proximity on the nanometre scale.

In assay [1] the target is T1, Smo^Δ625 (Drosophila Smoothened amino acids 1-625), C-terminally tagged with GFP10 (Drosophila) (UniProt P91682).
T1 sequence: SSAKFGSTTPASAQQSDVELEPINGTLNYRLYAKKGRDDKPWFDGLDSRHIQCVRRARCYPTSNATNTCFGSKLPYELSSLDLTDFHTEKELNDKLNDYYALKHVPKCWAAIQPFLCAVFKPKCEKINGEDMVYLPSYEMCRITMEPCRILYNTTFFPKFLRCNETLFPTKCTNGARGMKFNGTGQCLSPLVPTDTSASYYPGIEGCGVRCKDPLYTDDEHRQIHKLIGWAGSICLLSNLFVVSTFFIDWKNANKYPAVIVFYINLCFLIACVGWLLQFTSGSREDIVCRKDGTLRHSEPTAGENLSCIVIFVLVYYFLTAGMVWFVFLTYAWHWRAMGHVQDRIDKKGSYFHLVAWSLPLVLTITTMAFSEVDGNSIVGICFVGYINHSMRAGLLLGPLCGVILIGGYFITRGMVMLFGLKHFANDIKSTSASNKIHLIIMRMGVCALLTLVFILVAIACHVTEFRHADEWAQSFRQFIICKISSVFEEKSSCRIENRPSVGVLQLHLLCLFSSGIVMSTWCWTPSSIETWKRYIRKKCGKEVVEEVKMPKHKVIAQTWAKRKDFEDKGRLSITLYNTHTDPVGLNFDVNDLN

In assay [2] the target is T2, Smo^Δ651 (Drosophila Smoothened amino acids 1-651), C-terminally tagged with GFP10 (Drosophila) (UniProt P91682).
T2 sequence: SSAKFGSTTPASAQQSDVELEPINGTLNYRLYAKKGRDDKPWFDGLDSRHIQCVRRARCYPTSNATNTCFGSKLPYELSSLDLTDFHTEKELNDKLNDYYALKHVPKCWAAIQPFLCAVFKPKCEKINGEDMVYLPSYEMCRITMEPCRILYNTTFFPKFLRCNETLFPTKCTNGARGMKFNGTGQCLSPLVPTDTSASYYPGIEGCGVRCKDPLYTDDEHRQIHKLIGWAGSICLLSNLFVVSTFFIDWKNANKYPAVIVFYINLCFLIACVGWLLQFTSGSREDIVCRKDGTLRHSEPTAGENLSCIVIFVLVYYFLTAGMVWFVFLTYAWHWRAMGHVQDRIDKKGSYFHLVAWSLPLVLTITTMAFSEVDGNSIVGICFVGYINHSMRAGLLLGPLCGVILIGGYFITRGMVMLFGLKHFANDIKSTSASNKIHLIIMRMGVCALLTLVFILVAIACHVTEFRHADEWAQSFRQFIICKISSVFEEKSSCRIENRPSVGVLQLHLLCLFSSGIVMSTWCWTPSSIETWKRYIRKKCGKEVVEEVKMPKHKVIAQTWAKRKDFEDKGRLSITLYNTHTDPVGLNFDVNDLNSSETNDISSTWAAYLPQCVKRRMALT

In assay [3] the target is T3, Smo^core (Drosophila Smoothened amino acids 1-663), C-terminally tagged with GFP10 (Drosophila) (UniProt P91682).
T3 sequence: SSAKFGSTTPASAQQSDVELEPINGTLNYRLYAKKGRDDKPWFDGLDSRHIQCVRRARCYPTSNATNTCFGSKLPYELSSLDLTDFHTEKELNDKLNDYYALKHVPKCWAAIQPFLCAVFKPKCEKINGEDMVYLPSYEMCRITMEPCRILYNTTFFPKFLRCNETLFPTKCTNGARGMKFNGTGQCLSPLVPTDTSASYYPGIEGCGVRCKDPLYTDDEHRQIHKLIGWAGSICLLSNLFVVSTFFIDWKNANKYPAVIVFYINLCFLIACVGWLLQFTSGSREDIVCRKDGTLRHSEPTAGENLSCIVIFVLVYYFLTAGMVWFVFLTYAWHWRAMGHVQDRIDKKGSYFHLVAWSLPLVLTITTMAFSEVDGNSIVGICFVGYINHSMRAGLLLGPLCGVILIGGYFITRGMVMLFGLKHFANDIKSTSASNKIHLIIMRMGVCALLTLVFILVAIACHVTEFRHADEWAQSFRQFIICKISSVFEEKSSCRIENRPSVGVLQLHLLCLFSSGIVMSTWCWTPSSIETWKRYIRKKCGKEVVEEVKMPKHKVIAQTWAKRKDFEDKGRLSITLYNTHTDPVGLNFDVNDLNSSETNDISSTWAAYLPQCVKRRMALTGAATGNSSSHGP

Results are given in words; binding and its absence hold for the method and conditions named. Binding seen in cells or lysates may run through a third protein. Some results given as binding are weak or reduced against the parent protein; the word gives no strength. Where a sequence is shown, tags or fusion partners need not be part of it.

B1: Costal-2 (Cos2), C-terminally tagged with Renilla luciferase II (natural protein, Drosophila, UniProt O16844 1-1201, looked up)
chain: MEIPIQVAVRIFPHRELKDLLRSFGPTEPKKDAQAVDEGADSKDSEAQVPAAEKDNPSISETDPNGNAEQDSAADSKTIPDANGNDSGQKDYPDSAYCVQAIPISASALGLPSALPGGDPMDSIAAGLIQVGPHTVPVTHALPSSSSQEQVYHQTVFPLITLFLEGFDASVVTYGQRGQGKSYTLYGNVQDPTLTDSTEGVVQLCVRDIFSHISLHPERTYAINVGFVEICGGDVCDLLGMGNIHCTNVDAVFHWLQVGLSARQSLPAHTLFTLTLEQQWVSKEGLLQHRLSTASFSDLCGTERCGDQPPGRPLDAGLCMLEQVISTLTDPGLMYGVNGNIPYGQTTLTTLLKDSFGGRAQTLVILCVSPLEEHLPETLGNLQFAFKVQCVRNFVIMNTYSDDNTMIVQPAEPVPESNSSAGPLSQAGPGDNFGLQFAASQWSKLVTNAEGLFSKLIDSKLITEVEKEQIEEWLFLKQECEECLSSTEAMRQQKQLVPILEAEEPEDVNSEAANSESPNSDNENDTDNESHRPDLDDKIESLMEEFRDKTDALILEKHAEYLSKHPKAVMQSQDREIEAQPPEENGDDRKVSIGSRRRSVQPGASLSTAELAMLNRVASQQPPPPIDPESVVDPLESSSGEGIRQAALAAAAATAPIEQLQKKLRKLVAEIEGKQRQLREIEETIQVKQNIIAELVKNSDTRSHAKQRFHKKRAKLEAECDKAKKQLGKALVQGRDQSEIERWTTIIGHLERRLEDLSSMKHIAGESGQKVKKLQQSVGESRKQADDLQKKLRKECKLRCQMEAELAKLRESRETGKELVKAQGSPEQQGRQLKAVQARITHLNHILREKSDNLEEQPGPEQQETLRHEIRNLRGTRDLLLEERCHLDRKLKRDKVLTQKEERKLLECDEAIEAIDAAIEFKNEMITGHRSIDTSDRIQREKGEQMLMARLNRLSTEEMRTLLYKYFTKVIDLRDSSRKLELQLVQLERERDAWEWKERVLSNAVRQARLEGERNAVLLQRQHEMKLTLMLRHMAEETSASSASYGERALAPACVAPPVQASSDFDYDHFYKGGGNPSKALIKAPKPMPTGSALDKYKDKEQRSGRNIFAKFHVLTRYASAAAAGSSGSTAEESTALIESTTTATATTTSTTTTGAVGKVKDKALVSFRPEQLKRLMPAPTATKVTRQKNKIIIQDASRRN
notes: Costal-2 (Cos2), kinesin-like protein, Drosophila; also called Cos2-Luc; Cos2-RLucII; source: S2-R+ cells, transfected (pRmHa3.puro, induced with CuSO4), in intact cells; not shown: RLucII, C-terminal, kept
With B1, the binding entry in assay [1] is listed as “no binding”; in assay [2], “binds”; in assay [3] it was “binds”.

Values taken from paper PMC4091690, “A Broadly Conserved G-Protein-Coupled Receptor Kinase Phosphorylation Mechanism Controls Drosophila Smoothened Activity” (PLoS Genetics, 2014).
